Binding data for four substances are collected here from paper PMC4841768.

Amino acid sequences for entries named in this document (tags omitted). A change or cut given only in a name is not applied to a line headed by its entry.
UniProt P48432: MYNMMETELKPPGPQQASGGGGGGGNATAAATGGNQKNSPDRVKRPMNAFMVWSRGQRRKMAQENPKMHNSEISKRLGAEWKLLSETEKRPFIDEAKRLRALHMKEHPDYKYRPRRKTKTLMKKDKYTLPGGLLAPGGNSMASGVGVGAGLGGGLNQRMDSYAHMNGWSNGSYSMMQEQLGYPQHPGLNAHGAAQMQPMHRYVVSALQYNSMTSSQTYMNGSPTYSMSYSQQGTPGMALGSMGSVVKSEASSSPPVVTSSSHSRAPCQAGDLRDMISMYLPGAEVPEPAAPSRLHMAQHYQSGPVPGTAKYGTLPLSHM
UniProt Q8VHR5: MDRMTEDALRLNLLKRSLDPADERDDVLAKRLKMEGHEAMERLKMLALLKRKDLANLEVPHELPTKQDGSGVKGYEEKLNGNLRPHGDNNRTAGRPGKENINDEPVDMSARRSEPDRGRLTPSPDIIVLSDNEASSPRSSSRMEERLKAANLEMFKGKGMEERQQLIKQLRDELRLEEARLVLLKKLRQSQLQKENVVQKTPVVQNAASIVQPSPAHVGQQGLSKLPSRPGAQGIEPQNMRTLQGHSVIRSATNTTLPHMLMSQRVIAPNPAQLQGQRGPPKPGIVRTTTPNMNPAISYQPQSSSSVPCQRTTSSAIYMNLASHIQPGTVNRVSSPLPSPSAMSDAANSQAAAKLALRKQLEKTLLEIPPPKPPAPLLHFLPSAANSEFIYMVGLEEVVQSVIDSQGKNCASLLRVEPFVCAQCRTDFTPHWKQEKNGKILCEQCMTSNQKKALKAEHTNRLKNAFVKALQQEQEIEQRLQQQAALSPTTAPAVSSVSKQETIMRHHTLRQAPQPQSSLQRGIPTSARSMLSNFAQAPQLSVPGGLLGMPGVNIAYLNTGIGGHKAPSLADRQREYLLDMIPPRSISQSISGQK
UniProt P11103: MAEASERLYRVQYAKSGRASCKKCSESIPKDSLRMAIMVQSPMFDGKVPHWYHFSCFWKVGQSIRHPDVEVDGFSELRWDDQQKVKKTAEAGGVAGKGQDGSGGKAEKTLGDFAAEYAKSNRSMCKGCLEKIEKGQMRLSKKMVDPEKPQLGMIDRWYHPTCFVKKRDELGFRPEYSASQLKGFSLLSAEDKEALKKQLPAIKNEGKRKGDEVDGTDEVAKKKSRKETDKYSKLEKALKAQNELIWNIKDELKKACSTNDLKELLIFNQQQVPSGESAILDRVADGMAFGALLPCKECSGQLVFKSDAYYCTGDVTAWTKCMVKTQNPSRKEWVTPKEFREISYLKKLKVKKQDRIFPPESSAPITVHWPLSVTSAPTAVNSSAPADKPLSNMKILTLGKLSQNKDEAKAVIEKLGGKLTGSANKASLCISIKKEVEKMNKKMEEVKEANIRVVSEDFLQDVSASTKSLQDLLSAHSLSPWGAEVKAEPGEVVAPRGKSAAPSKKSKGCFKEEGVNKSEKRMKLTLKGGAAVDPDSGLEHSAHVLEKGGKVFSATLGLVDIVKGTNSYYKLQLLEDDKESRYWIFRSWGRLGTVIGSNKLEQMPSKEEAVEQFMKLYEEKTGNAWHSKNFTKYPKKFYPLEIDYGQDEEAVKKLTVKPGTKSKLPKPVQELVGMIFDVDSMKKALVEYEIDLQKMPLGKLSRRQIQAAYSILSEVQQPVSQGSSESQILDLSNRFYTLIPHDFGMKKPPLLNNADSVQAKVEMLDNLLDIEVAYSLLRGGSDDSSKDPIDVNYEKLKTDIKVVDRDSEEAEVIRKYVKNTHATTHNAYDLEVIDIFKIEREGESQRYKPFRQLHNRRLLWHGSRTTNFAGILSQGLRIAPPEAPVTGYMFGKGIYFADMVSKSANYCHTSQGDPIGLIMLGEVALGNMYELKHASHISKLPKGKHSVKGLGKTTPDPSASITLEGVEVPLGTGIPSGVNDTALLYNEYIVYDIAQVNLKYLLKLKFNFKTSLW
UniProt Q924K8: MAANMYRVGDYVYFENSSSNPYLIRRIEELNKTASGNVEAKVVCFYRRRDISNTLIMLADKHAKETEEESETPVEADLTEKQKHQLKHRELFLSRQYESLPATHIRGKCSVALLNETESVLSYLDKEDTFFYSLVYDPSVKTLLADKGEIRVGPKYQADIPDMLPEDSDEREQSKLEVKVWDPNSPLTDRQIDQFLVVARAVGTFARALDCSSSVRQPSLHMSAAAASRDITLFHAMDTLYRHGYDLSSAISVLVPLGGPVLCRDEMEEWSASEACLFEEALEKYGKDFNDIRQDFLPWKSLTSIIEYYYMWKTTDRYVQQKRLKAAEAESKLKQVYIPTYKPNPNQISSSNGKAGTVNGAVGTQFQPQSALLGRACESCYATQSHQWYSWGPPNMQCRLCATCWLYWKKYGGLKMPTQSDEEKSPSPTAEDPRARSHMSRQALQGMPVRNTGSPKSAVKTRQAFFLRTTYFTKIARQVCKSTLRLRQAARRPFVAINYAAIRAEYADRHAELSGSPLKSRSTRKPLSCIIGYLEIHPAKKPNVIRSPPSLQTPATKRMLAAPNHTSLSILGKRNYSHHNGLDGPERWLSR
UniProt Q3TKT4: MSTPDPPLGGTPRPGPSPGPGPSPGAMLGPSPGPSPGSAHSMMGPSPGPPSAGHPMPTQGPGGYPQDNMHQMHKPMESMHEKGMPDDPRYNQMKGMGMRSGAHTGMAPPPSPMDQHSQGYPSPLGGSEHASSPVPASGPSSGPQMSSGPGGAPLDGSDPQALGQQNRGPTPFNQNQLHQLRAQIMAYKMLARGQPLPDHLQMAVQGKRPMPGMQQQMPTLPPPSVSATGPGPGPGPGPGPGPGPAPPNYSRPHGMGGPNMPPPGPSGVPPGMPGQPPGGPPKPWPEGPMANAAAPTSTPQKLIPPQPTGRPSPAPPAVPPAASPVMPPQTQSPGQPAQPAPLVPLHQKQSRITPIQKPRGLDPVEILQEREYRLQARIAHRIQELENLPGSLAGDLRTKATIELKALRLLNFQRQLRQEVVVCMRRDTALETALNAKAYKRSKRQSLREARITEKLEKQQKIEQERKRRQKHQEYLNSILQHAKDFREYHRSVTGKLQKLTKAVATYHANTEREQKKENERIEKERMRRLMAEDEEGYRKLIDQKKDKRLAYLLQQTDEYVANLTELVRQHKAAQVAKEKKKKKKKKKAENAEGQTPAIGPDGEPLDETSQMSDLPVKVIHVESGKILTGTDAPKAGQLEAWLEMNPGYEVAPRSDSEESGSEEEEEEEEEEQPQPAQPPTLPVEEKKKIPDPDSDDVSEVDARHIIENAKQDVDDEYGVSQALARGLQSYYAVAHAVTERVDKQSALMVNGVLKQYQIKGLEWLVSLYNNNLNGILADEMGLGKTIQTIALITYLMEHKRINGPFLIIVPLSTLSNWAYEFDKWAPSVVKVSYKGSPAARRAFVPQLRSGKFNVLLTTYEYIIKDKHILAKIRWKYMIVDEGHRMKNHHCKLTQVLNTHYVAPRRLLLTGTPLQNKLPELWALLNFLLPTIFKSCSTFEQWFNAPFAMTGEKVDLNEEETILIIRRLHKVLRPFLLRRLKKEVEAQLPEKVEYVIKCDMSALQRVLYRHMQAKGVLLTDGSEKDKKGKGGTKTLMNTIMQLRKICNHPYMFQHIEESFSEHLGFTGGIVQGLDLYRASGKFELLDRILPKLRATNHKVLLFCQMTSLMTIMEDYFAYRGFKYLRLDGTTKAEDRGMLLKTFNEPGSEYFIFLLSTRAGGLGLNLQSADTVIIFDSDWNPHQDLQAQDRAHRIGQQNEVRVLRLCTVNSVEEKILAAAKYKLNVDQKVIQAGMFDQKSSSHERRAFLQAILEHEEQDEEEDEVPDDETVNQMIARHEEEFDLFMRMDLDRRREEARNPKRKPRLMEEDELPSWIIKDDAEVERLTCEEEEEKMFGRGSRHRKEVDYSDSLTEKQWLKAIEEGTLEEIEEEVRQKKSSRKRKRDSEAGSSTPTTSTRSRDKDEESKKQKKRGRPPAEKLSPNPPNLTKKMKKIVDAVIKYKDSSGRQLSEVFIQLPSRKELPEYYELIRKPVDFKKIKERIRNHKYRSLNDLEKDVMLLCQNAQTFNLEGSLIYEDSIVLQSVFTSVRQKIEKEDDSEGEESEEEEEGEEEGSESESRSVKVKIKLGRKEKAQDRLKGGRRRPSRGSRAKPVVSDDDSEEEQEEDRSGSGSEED

In experiment [1] the target is 3xFLAG-tagged O-GlcNAc-deficient SOX2 S248A (3xF-SOX2^S248A) of fS248A-Tg mESCs (mouse) (UniProt P48432). Kind of experiment: affinity purification with mass spectrometry; anti-FLAG M2 beads with nuclear extracts of fSOX2-Tg, fS248A-Tg and haSOX2-Tg (control) mESCs, 4 °C two hours; on-bead trypsin digest; label-free quantitation (MaxQuant LFQ).
Experiment [2] shares this target. Nature of the experiment: affinity purification with mass spectrometry; targeted analysis: two unique peptides for each NuRD component monitored (XICs) in anti-FLAG co-IPs of fSOX2-Tg and fS248A-Tg mESCs, three biological replicates.

No constants are given. Whether binding was seen depends on the method and setting. Binding seen in cells or lysates may run through a third protein. These calls come from enrichment with a bait or labelling near it, and not all partners need be listed.

Take “GATAD2B (mouse, endogenous in mESCs) (from UniProt Q8VHR5 1-594)”: the binding entry in experiment [1] is “binds”. Still for that read-out and setting: to “PARP1 (mouse, endogenous in mESCs) (from UniProt P11103 1-1013)” belongs “binds”. As to “MTA3 (mouse, endogenous in mESCs) (from UniProt Q924K8 1-591)”, the binding entry in experiment [2] and in experiment [1] was “binds” throughout. Consider “SMARCA4 (mouse, endogenous in mESCs) (from UniProt Q3TKT4 1-1613)”, for which, in experiment [1], the binding entry is recorded as “binds”.
